From PubChem BioAssay AID2685 (National Center for Advancing Translational Sciences (NCATS), 2010)
About 2,100 (0.66%) of roughly 320,000 compounds were called active. The inconclusive results got no clear call from the source; some entries with a clear call stand among them for comparison. Calls come from the whole dose curve; as a rule, active = well fitted inhibition curve with a large enough effect in the signal ratio, with a control signal flat (not every such curve was filed as active); inconclusive = small, poorly fitted or top-dose-only effect, or effect the other way, or a change in a side signal; inactive = flat fitted curve, though single readings scatter; the % refers to the signal ratio. A potency beside an inconclusive call is a rough fit, not a confirmed value.

Experiment: qHTS Assay for Lipid Storage Modulators in Drosophila S3 Cells
Settings: BODIPY lipid droplet fluorescence, 18-24 h, cells fed with added oleic acid; lipid storage change, negative = inhibition: at 46.1 µM (top of the series) unless noted
Summary of the method: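 Drosophila S3 cells loaded with oleic acid (400 uM, as added) and compounds at several concentrations; lipid droplets imaged by 488-nm laser-scanning cytometry, 500–530 nm intensity and object ratio to cell channel. Percent activity normalized to 20 uM Triacsin C.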
% is set by controls: 0 for no effect and ±100 for the full control effect; potency is the fitted concentration of half-maximal effect.

| SMILES | Potency | lipid storage change, negative = inhibition | outcome |
| --- | --- | --- | --- |
| COc1ccc(NC(=O)NCCCN2CCCC2=O)cc1 | inconclusive: 4.6 nM [falling, full curve, poor fit] | – | – |
| CCc1ccc(N2CN(CCc3ccccc3)CNC2=S)cc1 | – | inconclusive: 11.5% | – |
| CCS(=O)(=O)N1Cc2ccccc2CC1C(=O)Nc1nc2ccc(C)cc2s1 (stereo unspecified) | inconclusive: 651 nM [activator, full curve, poor fit] | – | – |
| Cc1ccc(S(=O)(=O)n2nc(OC(=O)c3ccccc3C)cc2N)cc1 | – | inconclusive: -4.23% | – |
| CC(C)Cn1c(SCC(=O)N2CCN(C(=O)c3ccco3)CC2)nc2ccccc2c1=O | – | inconclusive: 18.5% | – |
| COc1cccc(/C=C2\SC(=S)N(CCCC(=O)N3CCCCC3CCO)C2=O)c1 (stereo unspecified) | – | – | inactive [at 46.1 µM] |
| CCN(CC)CCNC(=O)NC1CCCCC1 | inconclusive: 651 nM [falling, full curve] | – | – |
| Cc1cnc(NC(=O)CN2C(=O)C3CC=CCC3C2=O)s1 (stereo unspecified) | – | inconclusive: 0.441% | – |
| O=C(Nc1nnc(S(=O)(=O)N2CCCCCC2)s1)c1ccccc1Cl | inconclusive: 517 nM [falling, single point] | – | – |
| Cc1cccc(NC(=S)NC(=O)C2CC2)c1 | inconclusive: 4110 nM [falling, full curve, poor fit] | – | – |
| COc1ccc(N2C(=O)C3CCCN3C2c2cccc(OC)c2)cc1 (stereo unspecified) | – | inconclusive: -7.54% | – |
| CC(=O)Nc1ccccc1C(=O)N1CC(C)OC(C)C1 (stereo unspecified) | – | inconclusive: -21% | – |
| COc1ccc(C(CNC(=O)c2ccc(S(=O)(=O)Nc3ccccc3F)cc2)N(C)C)cc1 (stereo unspecified) | – | inconclusive: 59.1% | – |
| Cn1c(C(=O)NCCN2CCc3ccccc3C2)cc2c(=O)[nH]c3ccccc3c21 | inconclusive: 29100 nM [falling, single point] | – | – |
| CC1CCC/C(=C\Nc2ccc(C(=O)O)c(O)c2)C1=O (stereo unspecified) | – | inconclusive: -2.13% | – |
| COc1ccc(O)c(/C=N/NC(=O)c2ccc(N3CCCC3=O)cc2)c1 | – | inconclusive: -100% | – |
| CCN1CCN(c2nc3c(c(=O)[nH]c(=O)n3C)n2CCSc2nc3ccccc3s2)CC1 | inconclusive: 6510 nM [activator, single point] | – | – |
| CCOC(=O)c1csc(NC(=O)c2ccccc2)n1 | – | inconclusive: 3.12% | – |
| COc1cc2c(cc1OC)CN(C(=O)c1sc(-c3cnccn3)nc1C)CC2 | – | inconclusive: 9.49% | – |
| O=c1c2cc(NC(=S)N3CCCC3)ccc2nc2n1CCCCC2 | inconclusive: 6510 nM [rising, single point] | – | – |
| Cc1ccccc1NS(=O)(=O)c1cccc(C(=O)Nc2cccc(C(=O)O)c2)c1 | – | inconclusive: 22.4% | – |

Full records from above. Order of values: Potency	lipid storage change, negative = inhibition	outcome
CC1CCC/C(=C\Nc2ccc(C(=O)O)c(O)c2)C1=O (stereo unspecified) reads –	inconclusive: -2.13%	–
CCOC(=O)c1csc(NC(=O)c2ccccc2)n1 reads –	inconclusive: 3.12%	–
